Experimental data published in PubChem BioAssay AID2685 (National Center for Advancing Translational Sciences (NCATS), 2010).
This is one part of the list. The main result of the screen is listed elsewhere. These columns were measured beside it and carry no call. Most of these compounds were active or inconclusive in the main read-out, so they are no random draw. Words in brackets tell the shape of the fitted curve; partial curves, single points and poor fits give uncertain potencies.

Assay: qHTS Assay for Lipid Storage Modulators in Drosophila S3 Cells;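 as to cell number change: cells counted by Cell Tracker Red CMTPX staining in the red channel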
Settings: BODIPY lipid droplet fluorescence, 18-24 h; for cell number change: measured here: cell count max response, cells fed with added oleic acid
How it was run: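 Laser-scanning cytometry quantifies lipid droplet accumulation (500–530 nm total intensity; droplet/cell object ratio) in oleic acid-fed (400 uM added) Drosophila S3 cells treated with a concentration series. 20 uM Triacsin C defined 100% inhibition.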

[1] = measured here: cell number channel AC50, cells fed with added oleic acid
[2] = measured here: lipid fluorescence (Fed channel) AC50, cells fed with added oleic acid

| SMILES | cell number change [%] | AC50 [1] | AC50 [2] |
| --- | --- | --- | --- |
| CC(=O)CCSc1nnc(-c2cccc(S(=O)(=O)N3CCOCC3)c2)o1 | 5.01 | 0.517 µM [falling, single point] | 0.517 µM [falling, single point] |
| O=C(CN1C(=O)C(=O)N(Cc2ccccc2)C1=O)c1ccc[nH]1 | 30.5 | 0.00411 µM [rising, full curve, poor fit] | 25.9 µM [rising, partial curve] |
| COc1cc2ccccc2cc1C(=O)N(CCN(C)C)c1nc2c(F)cccc2s1 | 29.7 | – | 1.3 µM [rising, partial curve] |
| CC(=O)Nc1ccc(S(=O)(=O)NC2(C(F)(F)F)N=C(c3ccccc3)NC2=O)cc1 (configuration not stated) | -107 | 29.1 µM [falling, partial curve] | 13 µM [falling, partial curve] |
| COc1cc(NC(=O)Cn2cnc3sc(C)c(S(=O)(=O)N4CCN(C)CC4)c3c2=O)cc(OC)c1OC | – | 0.116 µM [falling, partial curve, poor fit] | – |
| Cc1ccc(Nc2c(-c3ccc(N4CCOCC4)cc3)nc3ncccn23)cc1C | 12 | – | 4.11 µM [rising, single point] |
| CCCCN(CCCNC(=O)C1CCN(S(=O)(=O)CC)CC1)c1ccccc1 | -24.4 | – | 25.9 µM [falling, single point] |
| Cc1cc(N/N=C/c2cccc(Cl)c2)nc(NCc2ccccc2)n1 | -91.2 | 29.1 µM [falling, single point] | 0.82 µM [rising, partial curve] |
| CCN(CC)C(=O)CSc1nnc(COc2cccc(C)c2)n1C | -26.1 | – | 10.3 µM [falling, partial curve] |
| COc1ccc(CNC(=O)CSc2nc3ccc(C)cc3[nH]2)cc1OC | -15.3 | 0.731 µM [rising, single point] | – |
| CN(CCCNC(=O)c1cn(C)c2ccc(S(=O)(=O)N(C)C)cc2c1=O)c1ccccc1 | -21.3 | – | 20.6 µM [falling, single point] |
| CCN(Cc1ccccc1)c1ccc(N=Nc2nn(C)c(C)c2[N+](=O)[O-])cc1 | -92.1 | 29.1 µM [falling, single point] | 1.64 µM [rising, partial curve] |
| CC1(c2ccc(OC(F)F)cc2)NC(=O)N(CC(=O)Nc2ccc(OC(F)F)cc2)C1=O (configuration not stated) | -11.8 | – | 5.62 µM [falling, single point] |
| CCOc1ccc(-n2c(Cc3cc(=O)[nH]c(=O)[nH]3)nnc2SCC(=O)NC2CCCC2)cc1 | 5.94 | – | 0.517 µM [falling, partial curve, poor fit] |
| CC(C)CN(C(=O)CN1CCN(S(=O)(=O)c2ccc3ccccc3c2)CC1)c1c(N)n(CC(C)C)c(=O)[nH]c1=O | 4.74 | – | 29.1 µM [falling, single point] |
| COc1ccc(CCNC(C(=O)Nc2cc(C)cc(C)c2)c2ccccc2)cc1 (configuration not stated) | 22.9 | – | 5.8 µM [rising, single point] |
| Oc1ccccc1Cn1nnc2ccccc21 | -30 | 20.6 µM [falling, single point] | 29.1 µM [falling, single point] |
| O=C(CSc1nnc(-c2ccccc2)o1)Oc1ccc(Br)cc1 | – | 0.291 µM [falling, partial curve, poor fit] | 0.58 µM [falling, single point] |
| O=C(Nc1ccccc1)Nc1nnc(-c2ccccc2)o1 | -13.4 | – | – |
| O=C(N/N=C/c1ccc2nccnc2c1)c1cccc([N+](=O)[O-])c1 | 25.2 | – | – |

| SMILES | cell number change [%] | AC50 [1] | AC50 [2] |
| --- | --- | --- | --- |
| CCOC(=O)c1cnc2c(C)cccc2c1Nc1ccc(N2CCOCC2)cc1 | -18 | 3.66 µM [rising, single point] | 16.4 µM [falling, partial curve, poor fit] |
| O=C(CSc1cn(CCNC(=O)c2cccs2)c2ccccc12)NC1CCCC1 | 1.89 | – | – |
| CCOC(=O)c1c(C)c(C)n(Cc2cccc(OC)c2OC)c1C | – | – | 18.4 µM [rising, single point] |
| CCC1CCCCN1S(=O)(=O)c1ccc(-n2cnnn2)c(C)c1 (configuration not stated) | -9.4 | – | – |
| CCOC(=O)CSc1nnc(Cn2nnc(-c3ccccc3)n2)n1CC | – | – | 29.1 µM [falling, single point] |
| Cc1sc2nc3c4ccccc4c(NCc4ccco4)nn3c(=O)c2c1C | – | 6.51 µM [rising, single point] | 6.51 µM [rising, single point] |
| CC/C(=N\NC(=O)c1c[nH]c2ccccc12)c1cccs1 | -10.6 | – | 0.164 µM [falling, full curve, poor fit] |
| CCN1C(=O)CC(N2CCN(c3ccc(OC)cc3)CC2)C1=O (configuration not stated) | -1.79 | – | – |
| CC1CCN(C(=O)c2cc(-c3ccc4c(c3)OCO4)on2)CC1 | 5.56 | – | 6.51 µM [rising, single point] |
| C/C=C/c1ccc(OCC(=O)N(C)CC(=O)Nc2ccc(F)cc2)c(OC)c1 | -2.03 | – | 0.291 µM [rising, partial curve, poor fit] |
| COc1ccc2ccccc2c1/C=N/NC(=S)Nc1cc(S(=O)(=O)N2CCOCC2)ccc1N1CCOCC1 | 6.51 | – | – |
| Cc1ccccc1NC(=O)COC(=O)C1=COCCO1 | 22.7 | – | 2.59 µM [rising, full curve] |
| COc1cccc(-n2nnnc2SCC(=O)Nc2ccc3c(c2)OCCO3)c1 | -10.7 | 1.84 µM [rising, partial curve] | 1.84 µM [rising, partial curve] |
| O=C1Nc2ncccc2OC1CCO (configuration not stated) | – | – | 0.146 µM [falling, full curve, poor fit] |
| CC(C)(C)OC(=O)NCCCC[C@H](NC(=O)c1nc[nH]c1C(=O)NCc1ccc(CNC(=O)OC(C)(C)C)cc1)C(=O)OC(C)(C)C | 6.89 | – | 29.1 µM [falling, single point] |
| CCn1c(C)nc2cc(C(=O)NNS(=O)(=O)c3c(F)cc(F)c(Cl)c3F)ccc21 | 24.7 | – | – |
| Oc1c(N=NC(=S)Nc2ccccc2F)c2ccccc2n1Cc1ccc(F)cc1 | -34.4 | 20.6 µM [falling, single point] | 29.1 µM [falling, single point] |
| Cc1c(C(=O)Nc2ccccn2)oc2ccccc12 | -20.7 | – | 0.651 µM [rising, single point] |
| CCC(C)(C)C1CCC2(CC1)NC(=O)N(CC(=O)N(C)CC(=O)Nc1ccccc1C(F)(F)F)C2=O (configuration not stated) | 3.24 | – | 9.2 µM [falling, single point] |
| C[C@@H]1CC=C[C@H]2[C@H]1C(=O)N(Cc1ccccc1)[C@H]2c1ccc(F)c(-c2ccc(N(C)C)cc2)c1 | -28.1 | – | – |

| SMILES | cell number change [%] | AC50 [1] | AC50 [2] |
| --- | --- | --- | --- |
| c1ccc(-c2nnnc3ccccc23)cc1 | 5.01 | – | 0.103 µM [rising, full curve, poor fit] |
| O=[N+]([O-])c1ccc(S(=O)(=O)Nc2ccc(S(=O)(=O)N3CCCC3)cc2)cc1 | -8.97 | – | 6.51 µM [rising, partial curve, poor fit] |
| CCN1CCN(C(=O)c2ccc(COc3cccc(Cl)c3)o2)CC1 | 1.59 | 3.66 µM [rising, partial curve, poor fit] | – |
| Cc1cc(C)cc(OCCNS(=O)(=O)c2cccs2)c1 | 1.73 | 2.91 µM [falling, single point] | – |
| Cc1ccc(SCC(=O)Nc2ccc(S(N)(=O)=O)cc2)cc1 | 9.17 | – | 0.58 µM [falling, single point] |
| O=C(c1ccccc1)N1CCN=C1c1ccccc1 | -0.916 | – | 6.51 µM [rising, single point] |
| CCOc1ccc(-c2nc(S(=O)(=O)c3ccccc3)c(NC)o2)cc1 | -8.62 | 2.59 µM [rising, single point] | – |
| CCOc1ccc(N2C(=O)C3CCCN3C2=O)cc1 (configuration not stated) | 2.19 | – | – |
| COC(=O)c1sccc1NC(=O)CSc1nnnn1-c1ccccc1F | 25.5 | 0.092 µM [rising, full curve] | 2.59 µM [rising, partial curve] |
| O=C(CC1SC(=Nc2ccc3c(c2)OCCO3)NC1=O)Nc1ccc(F)cc1F (configuration not stated) | -9 | – | 3.66 µM [falling, full curve] |
| COc1ccc(C)cc1NS(=O)(=O)c1ccc2c(c1)oc(=O)n2C | 19 | – | – |
| COc1cc(C(O)P(=O)(OC(C)C)c2ccc(N(C)C)cc2)cc(OC)c1OC (configuration not stated) | -38.1 | – | – |
| COc1cc(/C=N/Nc2ccc([N+](=O)[O-])cn2)cc(OC)c1O | -9.01 | – | 0.058 µM [falling, full curve, poor fit] |
| Cc1cc(C)c(S(=O)(=O)N2CCN(C(=O)C(C)Cn3nc(C)nc3C)CC2)c(C)c1 (configuration not stated) | -11.1 | – | – |
| CCN(C(=O)CN1C(=O)NC(c2ccccc2)(c2ccc(C)c(C)c2)C1=O)C1CCS(=O)(=O)C1 (configuration not stated) | -10.5 | – | 29.1 µM [falling, single point] |
| CCOc1ccc(OCC)c(NC(=O)C2CCN(S(=O)(=O)c3c(C)noc3C)CC2)c1 | -61.8 | 3.66 µM [falling, full curve] | 1.84 µM [falling, full curve] |
| O=c1c2ccccc2c(-c2ccccc2)nn1Cc1ccccc1 | 85.2 | 29.1 µM [rising, single point] | 29.1 µM [rising, partial curve] |
| O=C(COc1ccc(S(=O)(=O)N2CCOCC2)cc1)NCCc1ccccc1 | 34 | 5.17 µM [rising, partial curve, poor fit] | – |

By substructure: those above with a CF3 group (two)

| SMILES | cell number change [%] | AC50 [1] | AC50 [2] |
| --- | --- | --- | --- |
| CC(=O)Nc1ccc(S(=O)(=O)NC2(C(F)(F)F)N=C(c3ccccc3)NC2=O)cc1 (configuration not stated) | -107 | 29.1 µM [falling, partial curve] | 13 µM [falling, partial curve] |
| CCC(C)(C)C1CCC2(CC1)NC(=O)N(CC(=O)N(C)CC(=O)Nc1ccccc1C(F)(F)F)C2=O (configuration not stated) | 3.24 | – | 9.2 µM [falling, single point] |
